Measurements from the supplement of paper PMC11006884.
This is a selection; strong and weak results do not stand in their true shares.

By UniProt entry, the sequences of proteins in these tests, tags left out. Where a name states a change or a piece, a line headed by the entry shows the natural chain unless it says otherwise.
UniProt O60291: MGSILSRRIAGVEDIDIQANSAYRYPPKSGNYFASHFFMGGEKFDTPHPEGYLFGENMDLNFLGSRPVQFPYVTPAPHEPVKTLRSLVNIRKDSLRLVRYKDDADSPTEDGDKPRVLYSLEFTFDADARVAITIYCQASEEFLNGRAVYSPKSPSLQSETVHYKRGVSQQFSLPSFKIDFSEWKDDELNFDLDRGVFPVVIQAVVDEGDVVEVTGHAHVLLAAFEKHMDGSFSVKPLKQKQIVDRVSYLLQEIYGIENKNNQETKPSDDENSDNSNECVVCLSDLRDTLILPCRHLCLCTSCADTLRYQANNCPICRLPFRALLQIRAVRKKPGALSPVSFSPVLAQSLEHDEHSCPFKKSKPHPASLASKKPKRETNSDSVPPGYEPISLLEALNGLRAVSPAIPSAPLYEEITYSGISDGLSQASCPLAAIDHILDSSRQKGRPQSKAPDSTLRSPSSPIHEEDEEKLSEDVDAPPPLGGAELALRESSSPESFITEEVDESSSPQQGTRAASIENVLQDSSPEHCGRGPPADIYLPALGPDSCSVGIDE
UniProt O75192: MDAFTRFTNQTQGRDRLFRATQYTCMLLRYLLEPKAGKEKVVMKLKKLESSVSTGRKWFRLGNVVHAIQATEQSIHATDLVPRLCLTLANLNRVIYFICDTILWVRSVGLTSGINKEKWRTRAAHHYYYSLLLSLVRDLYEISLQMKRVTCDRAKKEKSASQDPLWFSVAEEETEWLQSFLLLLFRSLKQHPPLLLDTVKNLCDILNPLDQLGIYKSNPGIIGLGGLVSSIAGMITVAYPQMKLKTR
UniProt O75179: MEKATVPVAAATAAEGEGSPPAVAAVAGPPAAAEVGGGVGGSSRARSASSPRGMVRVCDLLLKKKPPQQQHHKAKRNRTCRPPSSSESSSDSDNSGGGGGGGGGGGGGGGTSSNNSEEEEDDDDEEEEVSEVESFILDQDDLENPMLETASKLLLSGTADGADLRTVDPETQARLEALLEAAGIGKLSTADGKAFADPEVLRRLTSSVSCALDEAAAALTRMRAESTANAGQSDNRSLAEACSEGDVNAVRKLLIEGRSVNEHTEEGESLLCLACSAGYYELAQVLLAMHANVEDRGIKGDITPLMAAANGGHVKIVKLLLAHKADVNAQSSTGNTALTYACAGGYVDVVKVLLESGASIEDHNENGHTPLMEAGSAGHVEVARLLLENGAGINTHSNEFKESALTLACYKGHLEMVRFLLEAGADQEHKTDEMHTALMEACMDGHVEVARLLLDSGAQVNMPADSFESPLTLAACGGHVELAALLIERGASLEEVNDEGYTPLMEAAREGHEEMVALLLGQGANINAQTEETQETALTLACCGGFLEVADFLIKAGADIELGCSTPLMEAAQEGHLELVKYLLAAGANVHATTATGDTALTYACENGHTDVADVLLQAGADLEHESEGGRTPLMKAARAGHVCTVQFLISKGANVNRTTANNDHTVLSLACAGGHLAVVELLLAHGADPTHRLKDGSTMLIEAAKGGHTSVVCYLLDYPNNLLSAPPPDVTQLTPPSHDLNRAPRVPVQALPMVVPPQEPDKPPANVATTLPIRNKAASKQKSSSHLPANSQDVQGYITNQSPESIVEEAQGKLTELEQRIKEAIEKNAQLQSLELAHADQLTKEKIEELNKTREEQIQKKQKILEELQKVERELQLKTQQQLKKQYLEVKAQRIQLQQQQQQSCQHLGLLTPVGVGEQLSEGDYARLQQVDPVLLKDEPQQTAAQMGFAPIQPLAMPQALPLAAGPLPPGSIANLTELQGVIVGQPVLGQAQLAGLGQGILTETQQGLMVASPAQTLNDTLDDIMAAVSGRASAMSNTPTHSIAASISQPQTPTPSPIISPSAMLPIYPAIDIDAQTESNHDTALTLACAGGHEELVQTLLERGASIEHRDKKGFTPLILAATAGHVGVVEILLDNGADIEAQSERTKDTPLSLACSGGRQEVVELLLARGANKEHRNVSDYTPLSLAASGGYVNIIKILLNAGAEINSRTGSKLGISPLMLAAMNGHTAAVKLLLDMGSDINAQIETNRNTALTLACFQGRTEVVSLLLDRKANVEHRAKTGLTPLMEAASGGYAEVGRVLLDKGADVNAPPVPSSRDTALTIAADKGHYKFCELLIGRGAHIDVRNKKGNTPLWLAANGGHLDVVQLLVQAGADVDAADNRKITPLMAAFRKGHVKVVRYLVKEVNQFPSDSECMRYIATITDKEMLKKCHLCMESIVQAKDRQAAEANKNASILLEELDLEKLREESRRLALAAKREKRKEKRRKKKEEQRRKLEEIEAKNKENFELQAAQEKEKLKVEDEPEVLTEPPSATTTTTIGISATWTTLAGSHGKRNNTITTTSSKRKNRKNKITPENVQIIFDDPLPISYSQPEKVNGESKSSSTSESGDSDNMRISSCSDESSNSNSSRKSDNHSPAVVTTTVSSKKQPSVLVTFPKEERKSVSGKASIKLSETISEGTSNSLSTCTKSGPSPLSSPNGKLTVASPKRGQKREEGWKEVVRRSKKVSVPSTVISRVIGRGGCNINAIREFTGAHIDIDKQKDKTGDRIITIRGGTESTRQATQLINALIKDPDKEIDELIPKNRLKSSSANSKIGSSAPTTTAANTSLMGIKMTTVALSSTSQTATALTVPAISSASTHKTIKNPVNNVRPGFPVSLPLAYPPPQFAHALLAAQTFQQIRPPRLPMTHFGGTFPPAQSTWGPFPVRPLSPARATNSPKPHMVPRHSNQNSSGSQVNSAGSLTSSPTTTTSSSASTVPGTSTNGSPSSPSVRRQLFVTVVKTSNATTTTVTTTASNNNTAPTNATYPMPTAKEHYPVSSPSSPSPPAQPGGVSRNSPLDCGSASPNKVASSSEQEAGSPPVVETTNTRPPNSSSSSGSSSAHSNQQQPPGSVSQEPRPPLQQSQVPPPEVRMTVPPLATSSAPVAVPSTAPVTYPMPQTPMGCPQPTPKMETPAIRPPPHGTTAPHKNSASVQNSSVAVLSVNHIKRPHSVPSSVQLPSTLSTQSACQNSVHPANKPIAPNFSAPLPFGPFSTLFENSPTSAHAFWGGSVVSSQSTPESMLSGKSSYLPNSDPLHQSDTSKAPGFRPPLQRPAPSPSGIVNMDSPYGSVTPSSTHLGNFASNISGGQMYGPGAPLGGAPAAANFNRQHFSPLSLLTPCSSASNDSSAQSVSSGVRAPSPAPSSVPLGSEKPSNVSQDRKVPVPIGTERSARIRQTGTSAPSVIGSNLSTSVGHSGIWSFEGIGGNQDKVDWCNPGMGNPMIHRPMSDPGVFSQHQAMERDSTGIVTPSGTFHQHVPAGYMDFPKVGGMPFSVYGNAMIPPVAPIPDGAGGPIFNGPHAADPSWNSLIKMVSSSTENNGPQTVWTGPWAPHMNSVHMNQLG
UniProt O43765: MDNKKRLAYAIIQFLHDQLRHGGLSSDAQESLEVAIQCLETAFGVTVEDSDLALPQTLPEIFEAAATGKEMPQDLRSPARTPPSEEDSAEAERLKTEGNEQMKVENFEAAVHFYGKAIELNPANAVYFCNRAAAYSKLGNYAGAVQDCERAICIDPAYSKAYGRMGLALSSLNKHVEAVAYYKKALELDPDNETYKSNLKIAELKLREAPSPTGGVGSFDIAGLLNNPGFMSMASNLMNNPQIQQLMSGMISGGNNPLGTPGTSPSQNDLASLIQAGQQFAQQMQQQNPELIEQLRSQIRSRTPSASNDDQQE
UniProt O43432, whole entry, looked up: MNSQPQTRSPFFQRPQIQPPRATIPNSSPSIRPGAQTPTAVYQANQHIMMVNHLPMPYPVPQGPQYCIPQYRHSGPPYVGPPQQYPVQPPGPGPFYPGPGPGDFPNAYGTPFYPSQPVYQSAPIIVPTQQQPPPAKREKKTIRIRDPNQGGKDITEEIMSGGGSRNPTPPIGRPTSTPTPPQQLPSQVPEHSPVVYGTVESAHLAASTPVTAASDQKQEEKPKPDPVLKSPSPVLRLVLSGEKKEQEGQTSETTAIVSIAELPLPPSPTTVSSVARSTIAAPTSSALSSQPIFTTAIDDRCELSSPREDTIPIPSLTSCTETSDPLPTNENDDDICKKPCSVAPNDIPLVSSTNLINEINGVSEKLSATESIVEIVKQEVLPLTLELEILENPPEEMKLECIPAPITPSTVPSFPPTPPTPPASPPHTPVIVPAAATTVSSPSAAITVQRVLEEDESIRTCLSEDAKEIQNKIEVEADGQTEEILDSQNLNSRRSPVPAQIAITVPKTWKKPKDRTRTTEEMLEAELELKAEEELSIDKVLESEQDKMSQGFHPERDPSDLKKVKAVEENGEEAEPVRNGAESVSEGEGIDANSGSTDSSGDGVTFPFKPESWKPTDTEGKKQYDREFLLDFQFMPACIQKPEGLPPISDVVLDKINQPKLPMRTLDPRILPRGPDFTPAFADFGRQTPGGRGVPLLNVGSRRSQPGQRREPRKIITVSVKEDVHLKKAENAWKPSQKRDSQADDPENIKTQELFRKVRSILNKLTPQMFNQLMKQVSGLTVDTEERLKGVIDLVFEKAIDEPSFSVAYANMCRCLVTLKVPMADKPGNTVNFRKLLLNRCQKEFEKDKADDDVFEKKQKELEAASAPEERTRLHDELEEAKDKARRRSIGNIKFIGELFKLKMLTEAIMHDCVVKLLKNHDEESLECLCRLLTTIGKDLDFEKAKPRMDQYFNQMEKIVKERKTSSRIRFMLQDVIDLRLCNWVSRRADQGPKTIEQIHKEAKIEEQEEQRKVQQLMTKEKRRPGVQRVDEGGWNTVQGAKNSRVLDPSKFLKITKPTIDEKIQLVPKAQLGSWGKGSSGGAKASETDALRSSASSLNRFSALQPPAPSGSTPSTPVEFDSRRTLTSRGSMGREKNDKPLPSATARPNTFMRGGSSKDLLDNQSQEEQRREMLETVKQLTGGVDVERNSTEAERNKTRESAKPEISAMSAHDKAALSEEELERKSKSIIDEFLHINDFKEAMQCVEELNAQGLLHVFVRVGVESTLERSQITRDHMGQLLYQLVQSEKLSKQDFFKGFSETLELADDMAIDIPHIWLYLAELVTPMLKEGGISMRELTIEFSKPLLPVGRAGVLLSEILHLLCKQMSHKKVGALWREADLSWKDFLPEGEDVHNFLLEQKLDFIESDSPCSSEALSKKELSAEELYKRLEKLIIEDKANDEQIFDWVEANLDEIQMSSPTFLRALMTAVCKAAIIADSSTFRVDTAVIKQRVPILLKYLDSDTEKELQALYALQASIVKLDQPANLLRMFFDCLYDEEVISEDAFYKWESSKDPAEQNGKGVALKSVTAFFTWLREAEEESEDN
UniProt O75427: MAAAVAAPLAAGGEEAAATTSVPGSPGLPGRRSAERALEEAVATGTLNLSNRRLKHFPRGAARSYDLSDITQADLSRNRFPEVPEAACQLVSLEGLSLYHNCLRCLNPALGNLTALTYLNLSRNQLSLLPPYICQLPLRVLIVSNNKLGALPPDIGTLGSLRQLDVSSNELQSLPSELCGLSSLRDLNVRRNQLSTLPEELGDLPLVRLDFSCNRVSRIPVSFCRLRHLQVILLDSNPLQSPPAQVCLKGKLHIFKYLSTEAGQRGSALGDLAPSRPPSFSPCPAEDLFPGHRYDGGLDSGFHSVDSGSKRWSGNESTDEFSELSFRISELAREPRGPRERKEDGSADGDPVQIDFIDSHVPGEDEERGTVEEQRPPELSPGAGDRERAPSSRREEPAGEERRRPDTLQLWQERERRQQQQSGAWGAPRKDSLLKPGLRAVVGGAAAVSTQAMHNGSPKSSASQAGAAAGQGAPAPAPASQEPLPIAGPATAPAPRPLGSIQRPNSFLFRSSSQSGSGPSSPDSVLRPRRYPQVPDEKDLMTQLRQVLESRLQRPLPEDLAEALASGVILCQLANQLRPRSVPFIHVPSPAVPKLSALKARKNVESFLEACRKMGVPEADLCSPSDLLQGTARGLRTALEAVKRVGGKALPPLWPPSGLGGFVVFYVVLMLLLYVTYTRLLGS
UniProt O75390: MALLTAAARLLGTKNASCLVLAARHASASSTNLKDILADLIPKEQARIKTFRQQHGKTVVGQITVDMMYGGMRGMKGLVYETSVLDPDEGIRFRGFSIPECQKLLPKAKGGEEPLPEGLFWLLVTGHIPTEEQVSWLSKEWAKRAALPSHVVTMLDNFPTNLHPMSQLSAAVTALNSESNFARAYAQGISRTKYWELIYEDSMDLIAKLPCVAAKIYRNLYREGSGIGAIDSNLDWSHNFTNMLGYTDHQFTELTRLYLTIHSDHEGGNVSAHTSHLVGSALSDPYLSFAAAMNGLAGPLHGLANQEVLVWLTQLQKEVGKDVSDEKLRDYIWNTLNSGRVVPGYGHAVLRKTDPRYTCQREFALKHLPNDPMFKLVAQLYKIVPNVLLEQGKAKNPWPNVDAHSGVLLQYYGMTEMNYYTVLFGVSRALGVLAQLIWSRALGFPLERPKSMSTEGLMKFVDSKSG

What follows are targets tested with COC(=O)C#Cc1ccccc1 [methyl 3-phenylpropiolate] (assay: log2 ratio of iodoacetamide-alkyne labeling of the cysteine site, DMSO over compound (competition); higher = stronger covalent engagement of the cysteine by the compound, active = 1 or more). Conditions: 500 µM; treatment time 1 h; system: HEK293T cell lysate.
Summary of the method: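 The log2 competition ratio per cysteine is defined as mean reporter intensity in control channels over mean reporter intensity in compound channels. Lysate from HEK293T cells (2 mg/mL) received electrophile (500 µM) or vehicle for 1 h at ambient temperature, followed by iodoacetamide alkyne for 1 h. Samples were clicked to sCIP-TMT reagents, pooled, trypsin-digested overnight at 37 °C, streptavidin-enriched, acid-eluted and run on Orbitrap Eclipse LC-MS/MS with FAIMS, with quantification in FragPipe. Three replicates with duplicate channels were used, and any cysteine quantified in only one replicate was excluded.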

log2 ratio of iodoacetamide-alkyne labeling, inactive:
ZW10 C588 (UniProt O43264) 0.467, UniProt O43598_C26 0.038, PEX1 C1185 (UniProt O43933) 0.601, MGRN1 C428 (UniProt O60291) 0.472, CPD C582 (UniProt O75976) 0.145, UniProt O75192_C203 0.0851, ANKRD17 C210 (UniProt O75179) 0.398, SGTA C129 (UniProt O43765) 0.0696, ASNA1 C205 (UniProt O43681) 0.126, UniProt O43432_C1411 0.0789, IDH1 C379 (UniProt O75874) 0.0509, SORBS3 C521 (UniProt O60504) 0.124, ZW10 C568 (UniProt O43264) 0.37, LRCH4 C571 (UniProt O75427) -0.25, WIPF1 C446 (UniProt O43516) 0.707, RSL1D1 C211 (UniProt O76021) 0.0138, UniProt O60232_C125 0.457, NPM3 C70 (UniProt O75607) 0.58, KIF1B C66 (UniProt O60333) 0.257, DIAPH2 C484 (UniProt O60879) 0.418, UniProt O75153_C184 0.0459, SGTA C153 (UniProt O43765) -0.0876, IDH3B C185 (UniProt O43837) 0.839, IDH3B C233 (UniProt O43837) 0.394, MAST3 C541 (UniProt O60307) 0.46, SF3B1 C1250 (UniProt O75533) 0.59, PSIP1 C204 (UniProt O75475) 0.31, OBSL1 C581 (UniProt O75147) 0.461, RRP9 C399 (UniProt O43818) 0.297, GMDS C237 (UniProt O60547) 0.176, CSDE1 C680 (UniProt O75534) 0.119, PRPF3 C37 (UniProt O43395) 0.317, TIPRL C14 (UniProt O75663) 0.121, PAPSS1 C360 (UniProt O43252) 0.982, KATNA1 C491 (UniProt O75449) 0.112, CS C211 (UniProt O75390) 0.125, UniProt O75582_C714 0.127
